The target in the test is T1, FLAG-PUMA (human) (UniProt Q9BXH1).
T1 sequence: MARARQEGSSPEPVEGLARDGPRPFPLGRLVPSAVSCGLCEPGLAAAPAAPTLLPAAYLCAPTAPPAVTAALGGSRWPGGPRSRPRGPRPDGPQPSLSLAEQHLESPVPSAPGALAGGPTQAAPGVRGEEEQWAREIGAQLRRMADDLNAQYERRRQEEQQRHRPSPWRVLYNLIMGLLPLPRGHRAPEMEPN
In words: co-IP; SVEC cells stably expressing PUMA or BIMs 2A BCL-xL, without or with ABT-737; lysates in 1% Triton-X 100 buffer (20 mM Tris-Cl pH 7.4, 135 mM NaCl), anti-FLAG M2 affinity gel 16 h at 4 °C, eluted with FLAG peptide, immunoblot. (A western blot detects proteins with antibodies after separation by electrophoresis.)

Results are given in words; binding and its absence hold for the method and conditions named. Binding seen in cells or lysates may run through a third protein. Where a sequence is shown, tags or fusion partners need not be part of it.

B1: BAK (protein, UniProt O08734 1-209)
chain: MASGQGPGPPKVGCDESPSPSEQQVAQDTEEVFRSYVFYLHQQEQETQGAAAPANPEMDNLPLEPNSILGQVGRQLALIGDDINRRYDTEFQNLLEQLQPTAGNAYELFTKIASSLFKSGISWGRVVALLGFGYRLALYVYQRGLTGFLGQVTCFLADIILHHYIARWIAQRGGWVAALNFRRDPILTVMVIFGVVLLGQFVVHRFFRS
On to B1, for which the binding result was “no binding”.
